Measured values taken from patent US20200384014A1, “Pulsed Administration Of Inhaled Nitric Oxide For The Treatment Of Pulmonary Hypertension” (Bellerophon Pulse Technologies LLC, priority 2017, published 2020).

System: systolic pulmonary arterial pressure (sPAP) in subjects with PH-COPD
Assay: Phase 2 placebo-controlled clinical study of pulsed iNO in subjects with PH-COPD on LTOT (IK-7002-COPD-201; NCT01728220)
Format: in vivo, human
Text: This study was a Phase 2, placebo-controlled, double-blind, randomized, two-part, dose-confirming clinical study characterizing the pharmacodynamic effects of pulsed iNO versus placebo in subjects with PH-COPD on LTOT (IK-7002-COPD-201; NCT01728220). The primary outcome of this study was change in systolic pulmonary arterial pressure (sPAP) from baseline after treatment with iNO (measured by 2D transthoracic echocardiography with Doppler). The secondary outcome was the occurrence of a decrease ≥5 mm Hg of partial pressure of oxygen in arterial blood (PaO2) from baseline after treatment with iNO.
Subjects also had tricuspid regurgitation velocity (TRV)≥2.9 m/s as measured by echocardiogram, a post-bronchodilatory forced expiratory volume in 1 second/forced vital capacity (FEV1/FVC)<0.7 and a FEV1<60% predicted. All subjects were at least 40 years old and were former smokers with at least 10 pack-years of tobacco cigarette smoking before study entry. All subjects also had been receiving LTOT for at least 3 months for at least 10 hours per day.
PH-COPD subjects were administered pulsed iNO at a dose of 3, 10, 15, 30 or 75 mcg/IBW kg/hr for at least 20 minutes, or received pulsed placebo (99.999% N2) for at least 20 minutes. The doses of 3 and 10 mcg/kg IBW/hr were administered from a mini-cylinder having 2,440 ppm NO and the doses of 15, 30 and 75 mcg/kg IBW/hr were administered from a mini-cylinder having 4,880 ppm NO.
The NO delivery device delivered gas comprising NO in a pulsatile manner at the beginning of the patient's breath. The minimum pulse volume is limited and for lower doses, can require 1 or more breaths to be skipped to maintain a constant dose in mcg/kg IBW/hr.

SMILES: [N]=O [iNO, nitric oxide]
- Average Respiration Rate during Treatment (pulsed iNO 10 mcg/kg IBW/hr): 17.9 bpm
- Average Respiration Rate during Treatment (pulsed iNO 15 mcg/kg IBW/hr): 19.2 bpm
- Average Respiration Rate during Treatment (pulsed iNO 30 mcg/kg IBW/hr): 17.3 bpm
- Average Respiration Rate during Treatment (pulsed iNO 75 mcg/kg IBW/hr): 17.8 bpm
